# Laboratory results as given in patent EP4692105A1 (Bivision Pharmaceuticals, Inc, priority 2023, dated 2024).
# Assay: general procedure: Fmoc solid-phase peptide synthesis; CTC resin; PyBOP/DIEA
# Conditions: whole synthesis, scale 0.65 mmol
substance,measurement,value
Hex[Cys(3MeBn)-hhy39-Pro-Thr-Gln-Phe-Cys]-Glu-(EDA-DOTA)-OH,crude mass,550 mg
